The text below walks through data of paper PMC5285507.

Amino acid sequences for entries named in this document (tags omitted). A change or cut given only in a name is not applied to a line headed by its entry.
UniProt Q57WL3: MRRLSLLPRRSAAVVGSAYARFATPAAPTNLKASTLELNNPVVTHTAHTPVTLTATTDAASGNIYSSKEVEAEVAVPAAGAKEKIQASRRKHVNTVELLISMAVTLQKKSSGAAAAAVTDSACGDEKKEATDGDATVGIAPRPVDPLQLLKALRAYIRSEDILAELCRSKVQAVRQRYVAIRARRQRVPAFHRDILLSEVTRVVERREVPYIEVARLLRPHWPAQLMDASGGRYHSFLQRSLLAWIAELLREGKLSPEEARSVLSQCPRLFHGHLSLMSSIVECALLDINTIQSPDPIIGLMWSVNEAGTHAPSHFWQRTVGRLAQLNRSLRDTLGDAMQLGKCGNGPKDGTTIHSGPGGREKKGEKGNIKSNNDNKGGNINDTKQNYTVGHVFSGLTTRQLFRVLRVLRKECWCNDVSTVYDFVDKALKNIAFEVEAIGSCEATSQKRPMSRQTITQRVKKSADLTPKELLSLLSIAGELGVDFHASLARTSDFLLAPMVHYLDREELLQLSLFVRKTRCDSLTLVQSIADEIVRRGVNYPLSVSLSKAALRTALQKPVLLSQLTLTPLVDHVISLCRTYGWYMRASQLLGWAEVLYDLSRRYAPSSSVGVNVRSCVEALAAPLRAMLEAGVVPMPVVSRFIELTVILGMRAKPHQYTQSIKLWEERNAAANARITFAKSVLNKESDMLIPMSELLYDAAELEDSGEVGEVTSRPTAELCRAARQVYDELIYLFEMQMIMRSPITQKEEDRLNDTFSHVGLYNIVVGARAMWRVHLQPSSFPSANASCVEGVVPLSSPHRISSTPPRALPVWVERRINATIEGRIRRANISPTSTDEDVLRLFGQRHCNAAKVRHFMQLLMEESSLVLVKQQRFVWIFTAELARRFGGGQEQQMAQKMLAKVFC
UniProt Q389P7: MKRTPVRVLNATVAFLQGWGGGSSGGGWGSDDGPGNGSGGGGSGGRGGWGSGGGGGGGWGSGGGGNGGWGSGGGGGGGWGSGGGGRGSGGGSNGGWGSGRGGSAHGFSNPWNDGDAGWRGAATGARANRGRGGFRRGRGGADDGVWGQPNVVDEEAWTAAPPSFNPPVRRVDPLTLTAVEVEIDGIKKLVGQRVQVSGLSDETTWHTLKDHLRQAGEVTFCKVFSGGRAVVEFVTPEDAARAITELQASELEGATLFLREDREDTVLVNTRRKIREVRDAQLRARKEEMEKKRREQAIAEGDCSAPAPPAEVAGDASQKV
UniProt Q584T3: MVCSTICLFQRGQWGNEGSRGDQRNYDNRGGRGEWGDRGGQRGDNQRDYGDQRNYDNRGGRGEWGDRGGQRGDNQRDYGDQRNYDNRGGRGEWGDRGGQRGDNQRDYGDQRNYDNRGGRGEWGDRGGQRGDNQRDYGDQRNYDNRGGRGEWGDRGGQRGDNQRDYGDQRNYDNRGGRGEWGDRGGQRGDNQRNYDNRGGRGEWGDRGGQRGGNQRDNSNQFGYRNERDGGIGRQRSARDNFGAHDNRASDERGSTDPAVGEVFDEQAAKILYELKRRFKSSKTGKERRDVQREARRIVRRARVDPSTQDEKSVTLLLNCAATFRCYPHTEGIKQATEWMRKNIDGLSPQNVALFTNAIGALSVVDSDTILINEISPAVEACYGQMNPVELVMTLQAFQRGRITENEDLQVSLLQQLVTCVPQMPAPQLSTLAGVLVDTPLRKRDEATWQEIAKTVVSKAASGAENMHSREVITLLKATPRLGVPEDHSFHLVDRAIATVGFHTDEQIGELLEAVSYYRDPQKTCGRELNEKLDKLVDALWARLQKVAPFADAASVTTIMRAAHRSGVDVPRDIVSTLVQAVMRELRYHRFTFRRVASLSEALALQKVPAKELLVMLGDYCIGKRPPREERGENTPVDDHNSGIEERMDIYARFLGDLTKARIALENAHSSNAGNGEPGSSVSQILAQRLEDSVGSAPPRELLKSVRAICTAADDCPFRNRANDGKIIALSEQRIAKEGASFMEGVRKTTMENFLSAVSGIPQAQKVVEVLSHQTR
UniProt Q586X1: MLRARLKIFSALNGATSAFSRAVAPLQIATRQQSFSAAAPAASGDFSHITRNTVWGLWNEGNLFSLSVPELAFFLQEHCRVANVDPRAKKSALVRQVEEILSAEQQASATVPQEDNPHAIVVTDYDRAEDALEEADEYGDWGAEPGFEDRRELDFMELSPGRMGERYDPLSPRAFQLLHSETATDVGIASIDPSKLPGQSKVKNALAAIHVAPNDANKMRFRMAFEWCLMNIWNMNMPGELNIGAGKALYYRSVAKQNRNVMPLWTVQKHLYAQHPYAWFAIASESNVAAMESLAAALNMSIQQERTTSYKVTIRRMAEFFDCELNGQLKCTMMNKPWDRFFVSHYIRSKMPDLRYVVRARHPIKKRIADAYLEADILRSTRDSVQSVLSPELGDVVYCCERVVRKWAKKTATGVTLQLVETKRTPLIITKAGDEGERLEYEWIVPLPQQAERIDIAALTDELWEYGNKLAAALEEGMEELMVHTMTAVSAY
UniProt P90629: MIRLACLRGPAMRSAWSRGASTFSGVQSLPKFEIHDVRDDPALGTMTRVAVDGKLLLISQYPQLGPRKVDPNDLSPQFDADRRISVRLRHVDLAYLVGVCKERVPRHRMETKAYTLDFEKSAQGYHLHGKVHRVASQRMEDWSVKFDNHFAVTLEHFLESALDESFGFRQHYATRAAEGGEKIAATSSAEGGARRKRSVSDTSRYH

These are yes or no findings as the source states them, for the method shown. Binding seen in cells or lysates may run through a third protein. Binding can be weak; no strength is given.

The target of experiment [1] is MRB4160 tagged with modified TAP tag (mTAP) (T. brucei) (UniProt Q57Y20). Put plainly: co-IP; rapid tandem affinity purification: RNase I-digested supernatants of T. brucei with mTAP-tagged MRB8170 or MRB4160 mixed with IgG-coated magnetic Dynabeads; eluates probed by Western blot with specific antibodies; mock purification of the parental cell line as control. For orientation: Immunoblotting shows a protein as a band on a membrane.

For experiment [2], the target named is MRB8170 tagged with modified TAP tag (mTAP) (T. brucei) (UniProt Q57WL3). Described as above.

In the case of “T. brucei RGG2 (TbRGG2) (from UniProt Q389P7)”, the binding entry in experiment [1] and in experiment [2] was “binds” throughout.

In the case of TbRGG1 (from UniProt Q584T3), the binding result in experiment [1] and in experiment [2] was “binds” each time.

As for “gRNA-associated protein 1 (GAP1) (from UniProt Q586X1)”, the binding entry in experiment [1] and in experiment [2] was “binds” throughout.

“mtRNA-binding protein 1 (MRP1) (from UniProt P90629)”: the binding entry in experiment [1] and in experiment [2] was “binds” in each case.
